For two substances, binding results are on record in doi:10.1101/2024.04.15.589462.

Sequences of proteins named here, by UniProt entry; tags and fusion partners are left off.
UniProt Q61188: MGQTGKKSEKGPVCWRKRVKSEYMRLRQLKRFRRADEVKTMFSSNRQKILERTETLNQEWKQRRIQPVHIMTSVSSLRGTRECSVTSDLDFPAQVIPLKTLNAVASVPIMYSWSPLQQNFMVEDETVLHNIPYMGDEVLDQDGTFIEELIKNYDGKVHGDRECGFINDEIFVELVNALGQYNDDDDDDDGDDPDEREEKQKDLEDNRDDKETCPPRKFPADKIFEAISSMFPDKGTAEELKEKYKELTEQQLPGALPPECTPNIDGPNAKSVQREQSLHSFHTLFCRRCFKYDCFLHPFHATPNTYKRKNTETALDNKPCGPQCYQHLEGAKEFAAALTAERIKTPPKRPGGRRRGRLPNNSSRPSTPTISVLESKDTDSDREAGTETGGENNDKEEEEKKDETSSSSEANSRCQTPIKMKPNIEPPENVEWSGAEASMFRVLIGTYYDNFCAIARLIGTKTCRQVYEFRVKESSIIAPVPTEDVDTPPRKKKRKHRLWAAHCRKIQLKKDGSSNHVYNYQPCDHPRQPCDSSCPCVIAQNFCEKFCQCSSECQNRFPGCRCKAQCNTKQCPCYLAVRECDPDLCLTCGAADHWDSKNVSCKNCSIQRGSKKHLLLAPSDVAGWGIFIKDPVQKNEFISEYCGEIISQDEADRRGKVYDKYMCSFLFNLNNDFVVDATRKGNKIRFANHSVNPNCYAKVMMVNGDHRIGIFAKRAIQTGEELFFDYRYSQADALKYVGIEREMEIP
UniProt Q80U70: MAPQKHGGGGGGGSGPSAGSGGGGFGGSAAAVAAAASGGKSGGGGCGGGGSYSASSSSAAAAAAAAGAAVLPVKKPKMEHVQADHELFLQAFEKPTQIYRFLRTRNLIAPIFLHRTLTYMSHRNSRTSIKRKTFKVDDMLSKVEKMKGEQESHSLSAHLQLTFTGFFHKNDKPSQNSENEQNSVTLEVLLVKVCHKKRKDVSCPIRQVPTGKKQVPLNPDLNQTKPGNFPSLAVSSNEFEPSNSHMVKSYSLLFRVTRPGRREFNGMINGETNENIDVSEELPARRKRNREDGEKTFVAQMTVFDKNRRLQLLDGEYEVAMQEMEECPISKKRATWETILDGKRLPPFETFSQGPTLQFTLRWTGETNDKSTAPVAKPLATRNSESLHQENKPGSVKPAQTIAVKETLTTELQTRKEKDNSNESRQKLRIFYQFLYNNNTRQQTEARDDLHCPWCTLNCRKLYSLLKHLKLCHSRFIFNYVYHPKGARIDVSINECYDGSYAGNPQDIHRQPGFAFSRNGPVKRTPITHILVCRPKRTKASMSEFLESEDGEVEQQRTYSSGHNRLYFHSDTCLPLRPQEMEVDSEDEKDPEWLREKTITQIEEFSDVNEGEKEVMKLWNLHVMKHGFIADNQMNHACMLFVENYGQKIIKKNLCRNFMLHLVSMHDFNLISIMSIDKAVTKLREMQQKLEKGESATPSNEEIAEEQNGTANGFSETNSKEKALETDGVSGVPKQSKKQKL

Assay [1] addresses T1, endogenous AUTS2 (mouse (endogenous in embryonic cerebral cortex)).
T1 sequence: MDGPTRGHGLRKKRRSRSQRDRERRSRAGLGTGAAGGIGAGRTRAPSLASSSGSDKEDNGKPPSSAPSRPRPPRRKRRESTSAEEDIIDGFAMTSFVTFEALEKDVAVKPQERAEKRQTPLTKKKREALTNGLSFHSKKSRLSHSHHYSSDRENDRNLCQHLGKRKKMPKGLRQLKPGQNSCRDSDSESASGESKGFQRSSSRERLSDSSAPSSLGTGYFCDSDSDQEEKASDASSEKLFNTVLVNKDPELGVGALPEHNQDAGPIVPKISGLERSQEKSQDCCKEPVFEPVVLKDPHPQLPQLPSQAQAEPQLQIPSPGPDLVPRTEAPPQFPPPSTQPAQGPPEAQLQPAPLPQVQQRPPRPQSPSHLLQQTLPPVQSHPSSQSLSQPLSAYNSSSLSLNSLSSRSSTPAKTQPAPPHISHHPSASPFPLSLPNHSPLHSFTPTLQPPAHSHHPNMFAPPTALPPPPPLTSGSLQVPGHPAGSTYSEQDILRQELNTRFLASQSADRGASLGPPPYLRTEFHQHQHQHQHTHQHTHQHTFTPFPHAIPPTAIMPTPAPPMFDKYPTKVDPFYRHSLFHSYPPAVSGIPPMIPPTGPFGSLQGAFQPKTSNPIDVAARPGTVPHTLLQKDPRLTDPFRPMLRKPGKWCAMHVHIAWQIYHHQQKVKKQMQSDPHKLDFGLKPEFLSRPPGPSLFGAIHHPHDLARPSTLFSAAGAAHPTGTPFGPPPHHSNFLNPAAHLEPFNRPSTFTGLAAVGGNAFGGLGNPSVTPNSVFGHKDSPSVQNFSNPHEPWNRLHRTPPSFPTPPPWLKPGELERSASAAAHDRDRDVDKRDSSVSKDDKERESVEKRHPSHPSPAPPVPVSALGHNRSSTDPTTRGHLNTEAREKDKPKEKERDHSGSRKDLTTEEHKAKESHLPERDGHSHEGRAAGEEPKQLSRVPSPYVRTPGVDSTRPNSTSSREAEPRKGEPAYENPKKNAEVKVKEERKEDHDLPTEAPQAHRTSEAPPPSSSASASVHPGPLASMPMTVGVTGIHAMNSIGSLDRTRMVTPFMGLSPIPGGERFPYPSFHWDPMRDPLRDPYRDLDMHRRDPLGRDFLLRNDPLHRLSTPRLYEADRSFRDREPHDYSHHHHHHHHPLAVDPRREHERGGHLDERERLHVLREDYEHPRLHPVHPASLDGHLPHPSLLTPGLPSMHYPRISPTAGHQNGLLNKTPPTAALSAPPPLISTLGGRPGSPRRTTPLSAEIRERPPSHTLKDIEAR
The experiment in a line: co-IP.

The target of a further assay is T2, 3xFlag-tagged FL-AUTS2.
T2 sequence: T1 sequence
The experiment in a line: co-IP.

Assay [2] addresses T1, endogenous AUTS2 (mouse (endogenous in embryonic cerebral cortex)). The experiment in a line: proximity ligation.

These are yes or no findings as the source states them, for the method shown. In cells and extracts the contact can be indirect. Some results given as binding are weak or reduced against the parent protein; the word gives no strength. For some assays here: Tags and fused reporters may be left off the sequences shown.

In the case of EZH2 (from UniProt Q61188 1-746), the binding entry (in assay [1]; with 3xFlag-tagged FL-AUTS2; in assay [2]) was “binds” throughout.
SUZ12 (from UniProt Q80U70 1-741): the binding entry (in assay [1]; with 3xFlag-tagged FL-AUTS2) was “binds” each time.
